According to PMC7819943, “Rice protein-binding microarrays: a tool to detect cis-acting elements near promoter regions in rice”:
This is one part of the list.

By UniProt entry, the sequences of proteins in these tests, tags left out.
UniProt Q0JBA9, entry or part of it: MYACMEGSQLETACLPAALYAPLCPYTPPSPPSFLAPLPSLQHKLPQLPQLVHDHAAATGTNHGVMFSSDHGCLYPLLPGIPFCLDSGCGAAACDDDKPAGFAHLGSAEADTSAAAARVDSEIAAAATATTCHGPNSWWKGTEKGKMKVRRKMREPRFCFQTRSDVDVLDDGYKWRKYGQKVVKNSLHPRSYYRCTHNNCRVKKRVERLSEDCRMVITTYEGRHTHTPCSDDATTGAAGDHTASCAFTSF

target: OsWRKY34 (Oryza sativa, UniProt Q0JBA9 1-250); test: protein-binding microarray (RPBM); PBS, 2% BSA, 51.3 ng/ul salmon testes DNA, 50 uM zinc acetate, 200 nM TF, 25 C, 1 h; high values mean tight binding; conditions: protein: recombinant; tags: N-terminal polyhistidine and DsRed monomer fusion (pET32a); label: CyDye5-dUTP incorporated in the synthesized complementary strand; 3' TTTTT single-stranded linker to array surface; dsDNA, one strand shown
Procedure, shortened: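 The binding signal is fluorescence intensity per feature, in arbitrary units, read on an Axon 4000B scanner. Polyhistidine- and DsRed-tagged transcription factors (N-terminal fusions) from E. coli BL21-CodonPlus were purified on Ni–NTA and applied at 200 nM for 1 h at 25 °C to a double-stranded, BSA-blocked custom Agilent array in buffer with 50 µM zinc acetate.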

Sequence	binding signal
AAGCGTGTAGTTCATAATGCCGTGTAAACCATCAATCTGTCGGAGTCACCTAGTGCAG	8120 fluorescence intensity (a.u.)
GCCACTTCTCGTCTCCAGCCACGCGTGGTCCTTCACCTCCCGGAGTCACCTAGTGCAG	8740 fluorescence intensity (a.u.)
CTCTGTGTCCCCGGCCGTGTATTTTTTCCTATTATCCTCTCGGAGTCACCTAGTGCAG	13100 fluorescence intensity (a.u.)
ACTTTCTGTATCTATATATACGTAAGCACGTCCTGATTCTCGGAGTCACCTAGTGCAG	12200 fluorescence intensity (a.u.)
GCTTTGACTGCTCATGCGGTTACTCTCCACTCGTGAGGGGCGGAGTCACCTAGTGCAG	8640 fluorescence intensity (a.u.)
TTTTTTCTGGGATAAGTTTTTCTAGGGGTTTATTTTAGAACGGAGTCACCTAGTGCAG	9220 fluorescence intensity (a.u.)
TTTAGTCTTGATCGAGTTGGTTGGCTCTATTTGTGTTTGACGGAGTCACCTAGTGCAG	10900 fluorescence intensity (a.u.)
ATATTTTACTTCTCCCGTCTTCTTTCCCAATGGACACACACGGAGTCACCTAGTGCAG	8040 fluorescence intensity (a.u.)
AGGAAGCCCCATTCCATCCACACGTTTCAGCTGTCTTTCACGGAGTCACCTAGTGCAG	9490 fluorescence intensity (a.u.)
ACTCCCGTCGCCGTCAAGGTCGCCGAGGGGAGGGGAGGGGCGGAGTCACCTAGTGCAG	13400 fluorescence intensity (a.u.)
GATGATGTGTCCTAATCCACGCACTGCTCTGTTTAAATCTCGGAGTCACCTAGTGCAG	9090 fluorescence intensity (a.u.)
AGCTCGTGTGGTGTATGTTGTTGTGTGCTGCTAGCTAGCTCGGAGTCACCTAGTGCAG	10200 fluorescence intensity (a.u.)
CACACACGCAGACCTTATCCCTATGAGCACCTCCATATAACGGAGTCACCTAGTGCAG	8550 fluorescence intensity (a.u.)
ATGTAATTTACGTGAGTCTGTACACATGTTTCCTGCATTTCGGAGTCACCTAGTGCAG	10600 fluorescence intensity (a.u.)
GCGTTATCTTTGGTTCTTAAATCCTCCTTGTAATATGAATCGGAGTCACCTAGTGCAG	9690 fluorescence intensity (a.u.)
TGCTGCTCCCGCGCCCGCCGCCGCTCCCGCTCCCGCCTCACGGAGTCACCTAGTGCAG	9310 fluorescence intensity (a.u.)
ATCTCTTGTTTGTTGTGTGCGTTTTGGTTTCAGAAATCATCGGAGTCACCTAGTGCAG	13500 fluorescence intensity (a.u.)
TTTTCCCAGCCGCCACTGTTCCTGGGCCGCGAGGTGCTCGCGGAGTCACCTAGTGCAG	8870 fluorescence intensity (a.u.)
CCCCGACCCCGCCGCCGCCGACCTCTCTCCTCCGCGCCGCCGGAGTCACCTAGTGCAG	8240 fluorescence intensity (a.u.)
TATATATATATATATATATATAGAGGAACTGGATATTTGGCGGAGTCACCTAGTGCAG	14600 fluorescence intensity (a.u.)
TATTTTCCTACCATTTGATTTATTGTTAAATATACTTTTTCGGAGTCACCTAGTGCAG	10200 fluorescence intensity (a.u.)

Look-ups from the results shown:
CTCTGTGTCCCCGGCCGTGTATTTTTTCCTATTATCCTCTCGGAGTCACCTAGTGCAG | binding signal: 13100 fluorescence intensity (a.u.)
CACACACGCAGACCTTATCCCTATGAGCACCTCCATATAACGGAGTCACCTAGTGCAG | binding signal: 8550 fluorescence intensity (a.u.)

(cont.)

Sequence	binding signal
GGAAACCGTTTCCAATTCTCCATCCTCTCTATCTTCCTCTCGGAGTCACCTAGTGCAG	10300 fluorescence intensity (a.u.)
TGATTTACGATCTGACTCGTTTGCTTTGGTATGATTCTCCCGGAGTCACCTAGTGCAG	8130 fluorescence intensity (a.u.)
CAATTATCACCCATGCATCATGCACGCAACTATCTATACCCGGAGTCACCTAGTGCAG	9040 fluorescence intensity (a.u.)
GCTGATGGGAAAGTTCAGCGTCGAGTATTTTGGGGCATTTCGGAGTCACCTAGTGCAG	10100 fluorescence intensity (a.u.)
GGCGTGTTGTGTTCGGGTGGGTGCTGCGCAGGCTGCTGTACGGAGTCACCTAGTGCAG	17300 fluorescence intensity (a.u.)
TCGTGGCGGATTTGGATTTTAACGGATGGGATCGTATGGACGGAGTCACCTAGTGCAG	9670 fluorescence intensity (a.u.)
GTGCACACTTGTACTTGTCATTGTACGTATTTTCGTCATGCGGAGTCACCTAGTGCAG	8260 fluorescence intensity (a.u.)
AAGGGATTTTGATATTTTACTTGTACTGTTTGACCACTCGCGGAGTCACCTAGTGCAG	11600 fluorescence intensity (a.u.)
AGTTCATAGCTAGTGTTTTATTCCGTTATCCGCCTAACTTCGGAGTCACCTAGTGCAG	14000 fluorescence intensity (a.u.)
TACTTCCATCTCATTTTGACCATTCTTAAGATTTTTTTAGCGGAGTCACCTAGTGCAG	9030 fluorescence intensity (a.u.)
CTGTGTGTTGGTCCTGATAGATGGAGGGTCAGTCGCTCACCGGAGTCACCTAGTGCAG	9830 fluorescence intensity (a.u.)
AAGTTTGTGTTGCAGCTGCCTATAAATATGTAGCTCGTTTCGGAGTCACCTAGTGCAG	8610 fluorescence intensity (a.u.)
TTTAAATAAAACGAATGGTCAAACGTTGATAAAAAGTCAACGGAGTCACCTAGTGCAG	13300 fluorescence intensity (a.u.)
TCCTCTCTGCTCTGCTTCCCCTGTCCACCACTATTAAACCCGGAGTCACCTAGTGCAG	8100 fluorescence intensity (a.u.)
CCACGCCTCTGCCTGCCTTGGGTCCCAACTCCCAATCACCCGGAGTCACCTAGTGCAG	10100 fluorescence intensity (a.u.)
CCCTTCACTTTGATTCTTCCTGTCTACCTAGGTTAAAAAACGGAGTCACCTAGTGCAG	9550 fluorescence intensity (a.u.)
GTGGAAAGACGAGGTCTCAAGCTTTATCCCGCCTTCAATCCGGAGTCACCTAGTGCAG	8050 fluorescence intensity (a.u.)
TTTTTCTACAGTTCTTTGCCATCGTTCAAACCTTCGCCACCGGAGTCACCTAGTGCAG	8770 fluorescence intensity (a.u.)
CCACTTTGTCCTCTTACCCCGCCACCACCGCCGCCTATATCGGAGTCACCTAGTGCAG	11300 fluorescence intensity (a.u.)
TTTCCGTCACCGTTTTAATCCCGATCGTATATGTTCAAATCGGAGTCACCTAGTGCAG	8510 fluorescence intensity (a.u.)
TTATTTTCCCATTTCTATCTCCTCGAGTCTTATCACCTGACGGAGTCACCTAGTGCAG	11000 fluorescence intensity (a.u.)

Sequence	binding signal
GCTTTGGAACTCCTTTAGATTATAATCCAACTCAATTCAACGGAGTCACCTAGTGCAG	8260 fluorescence intensity (a.u.)
CCTAAACCCTAGCCCTTTTAGTTGTTTATCGTTTTCTTGTCGGAGTCACCTAGTGCAG	8580 fluorescence intensity (a.u.)
AAATTGGATGTGCCTACTTCACGCTTTAAATTTCAATAATCGGAGTCACCTAGTGCAG	9780 fluorescence intensity (a.u.)
ACTCCATATCGCTTCGCGATTTTTTGTTGACCAAATCAATCGGAGTCACCTAGTGCAG	9610 fluorescence intensity (a.u.)
GACTCGTTCCTTTGTCCTAATCATTGGTCTTTACTCAGTTCGGAGTCACCTAGTGCAG	9040 fluorescence intensity (a.u.)
ATCCCGGCCTGCTCTTGCGCTTTGACTTTTTGTAGAGTTTCGGAGTCACCTAGTGCAG	18200 fluorescence intensity (a.u.)
ATTGGACTTGCGTTGACCTTCAAGCCGTTCCTGGCAATACCGGAGTCACCTAGTGCAG	11600 fluorescence intensity (a.u.)
ACGCCTTGTCTGCTGTATTAATCAGTTTTCTCCATTTGGACGGAGTCACCTAGTGCAG	9850 fluorescence intensity (a.u.)
TGTTGGAATAGTTGTAGCAGTATGAGAAGTTTTGATGTTTCGGAGTCACCTAGTGCAG	8280 fluorescence intensity (a.u.)
TGTCCTTGTCCATCGCTATCTTCAGGCCGCCAAGAAAGTCCGGAGTCACCTAGTGCAG	8120 fluorescence intensity (a.u.)
CCACGCCGTCGCCGTCACCTCTCATCGTGCCTTGGACGCCCGGAGTCACCTAGTGCAG	11000 fluorescence intensity (a.u.)
CACTCACCATCTTCTTGTCTTCTCTCTCTCCTCTCATCCTCGGAGTCACCTAGTGCAG	10000 fluorescence intensity (a.u.)
TATGCGGGGATGGGGATGGTGACGTTCGATTTTTTCTGCTCGGAGTCACCTAGTGCAG	10000 fluorescence intensity (a.u.)
AGTATTACCATCGTCCTTAAATAAGTACATTTTTAGCACACGGAGTCACCTAGTGCAG	9320 fluorescence intensity (a.u.)
TGGTTTTATGCTCTCCAGCTACGTTAGTATTTTTACAGCACGGAGTCACCTAGTGCAG	10100 fluorescence intensity (a.u.)
CTCATGGCCATTTACTTGTTCTTCTTCCTGCTCCATGCTTCGGAGTCACCTAGTGCAG	9500 fluorescence intensity (a.u.)
GTGGGCGGGGTGTATAGTAGTATAGTTTTAGAGCCGGTGACGGAGTCACCTAGTGCAG	12700 fluorescence intensity (a.u.)
GGTTCCAATTCGTCGCCTGATACTCCGATTCGAGTTCTTGCGGAGTCACCTAGTGCAG	12700 fluorescence intensity (a.u.)
TTCATCTCATCTCTCACGCCGTCTCCGTTCACATCCTTATCGGAGTCACCTAGTGCAG	14100 fluorescence intensity (a.u.)
TTACTATTTACCCAAAATTATTTCATGAAATACTAATTCACGGAGTCACCTAGTGCAG	8740 fluorescence intensity (a.u.)
ACAGCAAACAAACGTAACACCTTAACACGTCATGCAGTTTCGGAGTCACCTAGTGCAG	9020 fluorescence intensity (a.u.)

Reprinted at random: 5 entries already listed
Sequence	binding signal
CTCATGGCCATTTACTTGTTCTTCTTCCTGCTCCATGCTTCGGAGTCACCTAGTGCAG	9500 fluorescence intensity (a.u.)
TATGCGGGGATGGGGATGGTGACGTTCGATTTTTTCTGCTCGGAGTCACCTAGTGCAG	10000 fluorescence intensity (a.u.)
ACTCCATATCGCTTCGCGATTTTTTGTTGACCAAATCAATCGGAGTCACCTAGTGCAG	9610 fluorescence intensity (a.u.)
CCACGCCGTCGCCGTCACCTCTCATCGTGCCTTGGACGCCCGGAGTCACCTAGTGCAG	11000 fluorescence intensity (a.u.)
TGTTGGAATAGTTGTAGCAGTATGAGAAGTTTTGATGTTTCGGAGTCACCTAGTGCAG	8280 fluorescence intensity (a.u.)

The results go on:

Sequence	binding signal
ACTCCCGCCTCGACCACGTCCTCGCCCGCGACGACATCCCCGGAGTCACCTAGTGCAG	8100 fluorescence intensity (a.u.)
GGGGTGCTGTTTGTGTTTGTGTGTAGTTTTTGCCAATCCACGGAGTCACCTAGTGCAG	14900 fluorescence intensity (a.u.)
ACACTGTCCATCAGATCCTGCCAGCTTGATCCTGGCCGTCCGGAGTCACCTAGTGCAG	10400 fluorescence intensity (a.u.)
ATCAACGACTATTCAGATAGCCAACAAGTTGACCTTGACCCGGAGTCACCTAGTGCAG	8180 fluorescence intensity (a.u.)
TTTCTTGGTCTTTGGGTTAAATGTGGTTATGCCTTATATTCGGAGTCACCTAGTGCAG	8260 fluorescence intensity (a.u.)
CGCAGCTTTTTTATTTAAAATAATCCCGTACGTTTTTTTTCGGAGTCACCTAGTGCAG	9000 fluorescence intensity (a.u.)
TTGTGTTTAGATCCAGGGGTCAAAAGTTTTGACGTGTCACCGGAGTCACCTAGTGCAG	9220 fluorescence intensity (a.u.)
AAATGCTTTTGTTCCTGTGACTCTAACCACCTACATTTAACGGAGTCACCTAGTGCAG	9570 fluorescence intensity (a.u.)
TCCCGCACCACGCGCGCGCCGCTGAGATCCTCTTCGAGCACGGAGTCACCTAGTGCAG	11700 fluorescence intensity (a.u.)
CCTTTTTCTTAACTTCCAACACACTAGGGATCCAGAACACCGGAGTCACCTAGTGCAG	8380 fluorescence intensity (a.u.)
AGTCCGCCTCGGTCTCTTCTTCTTCTTCTTCCCAATTTGCCGGAGTCACCTAGTGCAG	11300 fluorescence intensity (a.u.)
TGCATGCCCTGCTTTATCTTCTTCTTCTTCTGGTCAAATACGGAGTCACCTAGTGCAG	10400 fluorescence intensity (a.u.)
ACTTTAATTCTTTTCCATCACATCAACCTGTTATACACACCGGAGTCACCTAGTGCAG	12700 fluorescence intensity (a.u.)
GACTTTTTAGCATATGTTTGACCGTTCGTCTTATTCAAAACGGAGTCACCTAGTGCAG	10600 fluorescence intensity (a.u.)
CCAATCACAAGCAACGCCCACTCGCTACTACTACTCCACTCGGAGTCACCTAGTGCAG	9060 fluorescence intensity (a.u.)
CCTCACACACACCTCTCCTTCACCCTAACCTTTTCTTTTTCGGAGTCACCTAGTGCAG	8270 fluorescence intensity (a.u.)
GATGGGCAGCAGTTCTTCGTCGTCATGTGGCCCGCCCAAACGGAGTCACCTAGTGCAG	8530 fluorescence intensity (a.u.)
TACCGACTCCTCCAACTACCAAAACCGGTACAAACTATATCGGAGTCACCTAGTGCAG	9900 fluorescence intensity (a.u.)
ATTCTCTGAGATAAGTCGCTTGTTATTCTTATTGGATCTCCGGAGTCACCTAGTGCAG	9450 fluorescence intensity (a.u.)
ATTTTCATTTTCATTTTCTGTTTTCCTTTCTTTTTTTGGACGGAGTCACCTAGTGCAG	9050 fluorescence intensity (a.u.)
TTCACCCTTTTCCGGTCGTCTTCCTCGTCTCGCTCCCCTGCGGAGTCACCTAGTGCAG	9810 fluorescence intensity (a.u.)
